For 1 substance, binding results are on record in PMC9309057.

By UniProt entry, the sequences of proteins in these tests, tags left out. Where a name states a change or a piece, a line headed by the entry shows the natural chain unless it says otherwise. Chains listed by the source or under a name are the forms on record and can include a tag or linker.
RUNX3-FLAG (human RUNX3 in pcDNA3.1) (Q13761, form named): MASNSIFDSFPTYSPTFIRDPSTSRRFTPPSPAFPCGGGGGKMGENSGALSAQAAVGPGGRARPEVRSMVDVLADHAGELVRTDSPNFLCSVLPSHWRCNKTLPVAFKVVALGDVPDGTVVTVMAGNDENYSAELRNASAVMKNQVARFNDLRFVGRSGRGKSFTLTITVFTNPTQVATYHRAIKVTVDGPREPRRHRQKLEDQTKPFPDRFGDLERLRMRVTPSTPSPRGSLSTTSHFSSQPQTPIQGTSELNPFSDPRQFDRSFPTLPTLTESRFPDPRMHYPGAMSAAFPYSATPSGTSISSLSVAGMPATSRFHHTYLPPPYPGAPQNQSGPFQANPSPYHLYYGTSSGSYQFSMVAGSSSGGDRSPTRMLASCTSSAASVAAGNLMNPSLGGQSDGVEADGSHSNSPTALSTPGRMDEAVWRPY
UniProt P23771: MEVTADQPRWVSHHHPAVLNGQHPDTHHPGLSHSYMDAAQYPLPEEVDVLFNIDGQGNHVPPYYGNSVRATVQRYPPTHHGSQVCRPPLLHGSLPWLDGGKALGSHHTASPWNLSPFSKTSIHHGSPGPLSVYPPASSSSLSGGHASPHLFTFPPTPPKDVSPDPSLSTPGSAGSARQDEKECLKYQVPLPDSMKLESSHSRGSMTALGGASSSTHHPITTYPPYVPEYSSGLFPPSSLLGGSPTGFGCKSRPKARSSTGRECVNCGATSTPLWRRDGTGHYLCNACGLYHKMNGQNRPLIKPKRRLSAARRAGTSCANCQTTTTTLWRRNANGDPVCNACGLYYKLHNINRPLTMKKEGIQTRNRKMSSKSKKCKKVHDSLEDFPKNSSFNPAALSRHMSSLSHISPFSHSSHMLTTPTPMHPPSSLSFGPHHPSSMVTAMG

These are yes or no findings as the source states them, for the method shown. Binding seen in cells or lysates may run through a third protein. Some binding calls cover weakened binding; strength is not graded here.

The experiment has as its target RUNX3-FLAG (human RUNX3 in pcDNA3.1) (human) (UniProt Q13761). In words: co-IP; HEK293T cells cotransfected with pcDNA3.1-RUNX3-FLAG and pcDNA3.1-GATA3-HA, lysed after 48 hours; lysates incubated with mouse anti-FLAG magnetic beads overnight in cold room; washed with PBST (0.1% Triton X-100); Western blot.

Regarding “GATA3-HA (human GATA3 in pcDNA3.1) (from UniProt P23771 1-443)”, the binding entry is on record as “binds weakly”.
